Assay results from PubChem BioAssay AID270 (DTP/NCI, 2004).
The list is a part of this screen's results and no random one: it covers a few groups of compounds. Not every dose and run of a compound is shown. T/C is the treated group as % of the vehicle group. Some T/C values are marked as having no survivor count here; that says nothing about deaths at the dose. Schedule codes are those of the source, taken here to give the interval after Q, in days (D) or hours (H), and the number of doses after X. Where survival is the endpoint, the PubChem record calls one and a half times the control and up active, and a quarter to a half above the control has no call in these data; cut-offs in other NCI protocols can differ. Some doses were run more than once; the results are listed from low to high.

System: BDF1 mice, s.c. Lewis lung carcinoma, T/C %
Experiment: NCI In Vivo Anticancer Drug Screen. Data for tumor model Lewis Lung Carcinoma (subcutaneous) in B6D2F1 (BDF1) mice
Procedure: The antitumor activity of compounds was measured in mice bearing transplantable tumors. Survival or tumor size were measured and the results are expressed as the measurement made in the treated group (T) divided by the measurement made in the vehicle treated control group (C). The tumor model used in this assay is Lewis Lung Carcinoma (subcutaneous) in B6D2F1 (BDF1) mice

`ClCCN(CCCl)Cc1nc2ccc(Cl)cc2[nH]1` was tested, and the T/C (T/C endpoint: mean tumor weight, dose: 1.5 mg/kg/injection, schedule: Q01DX011 (ip), vehicle: other, evaluation day not shown, higher T/C = larger tumour) was 106 % of control [survivor count not shown], the T/C (T/C endpoint: mean tumor weight, dose: 3.0 mg/kg/injection, schedule: Q01DX011 (ip), vehicle: other, evaluation day not shown, higher T/C = larger tumour) was 85 % of control [survivor count not shown] and the T/C (T/C endpoint: mean tumor weight, dose: 6.0 mg/kg/injection, schedule: Q01DX011 (ip), vehicle: other, evaluation day not shown, higher T/C = larger tumour) was 77 % of control [survivor count not shown].

In the case of `ClCCN1CCN(CCCl)CC1`, the T/C (T/C endpoint: median survival time, dose: 0.06 mg/kg/injection, schedule: Q01DX009 (ip), vehicle: saline, higher T/C = longer survival) is reported as 103 % of control [survivor count not shown], the T/C (T/C endpoint: median survival time, dose: 0.12 mg/kg/injection, schedule: Q01DX009 (ip), vehicle: saline, higher T/C = longer survival) is reported as 105 % of control [survivor count not shown] and the T/C (T/C endpoint: median survival time, dose: 0.25 mg/kg/injection, schedule: Q01DX009 (ip), vehicle: saline, higher T/C = longer survival) is reported as 103 % of control [survivor count not shown]. The T/C (T/C endpoint: median survival time, dose: 7.5 micrograms/kg/injection, schedule: Q01DX009 (ip), vehicle: saline, higher T/C = longer survival) was 95 % of control [survivor count not shown], the T/C (T/C endpoint: median survival time, dose: 15.0 micrograms/kg/injection, schedule: Q01DX009 (ip), vehicle: saline, higher T/C = longer survival) was 102 % of control [survivor count not shown] and the T/C (T/C endpoint: median survival time, dose: 30.0 micrograms/kg/injection, schedule: Q01DX009 (ip), vehicle: saline, higher T/C = longer survival) was 110 % of control [survivor count not shown]. For the same molecule, the T/C (T/C endpoint: median survival time, dose: 60.0 micrograms/kg/injection, schedule: Q01DX009 (ip), vehicle: saline, higher T/C = longer survival) was 97 % of control [survivor count not shown].

With `CC(Cl)CNCC(C)Cl` (stereo not given) the T/C (T/C endpoint: median survival time, dose: 12.5 mg/kg/injection, schedule: Q01DX009 (ip), vehicle: saline, higher T/C = longer survival) was 94 % of control [survivor count not shown], the T/C (T/C endpoint: median survival time, dose: 25.0 mg/kg/injection, schedule: Q01DX009 (ip), vehicle: saline, higher T/C = longer survival) was 104 % of control [survivor count not shown] and the T/C (T/C endpoint: median survival time, dose: 50.0 mg/kg/injection, schedule: Q01DX009 (ip), vehicle: saline, higher T/C = longer survival) was 108 % of control [survivor count not shown].

`CCC1(CC)NC(=O)N(CCN(CCCl)CCCl)C1=O` was tested, and the T/C (T/C endpoint: median survival time, dose: 0.78 mg/kg/injection, schedule: Q01DX009 (ip), vehicle: saline, higher T/C = longer survival) was 97 % of control [survivor count not shown], the T/C (T/C endpoint: median survival time, dose: 1.56 mg/kg/injection, schedule: Q01DX009 (ip), vehicle: saline, higher T/C = longer survival) was 130 % of control [survivor count not shown] and the T/C (T/C endpoint: median survival time, dose: 3.12 mg/kg/injection, schedule: Q01DX009 (ip), vehicle: saline, higher T/C = longer survival) was 103 [survivor count not shown] and 165 % of control [survivor count not shown]. For the same molecule, the T/C (T/C endpoint: median survival time, dose: 6.25 mg/kg/injection, schedule: Q01DX009 (ip), vehicle: saline, higher T/C = longer survival) was 100 [survivor count not shown] and 150 % of control [survivor count not shown].

With `ClCCN(CCCl)c1ccccc1` the T/C (T/C endpoint: median survival time, dose: 3.0 mg/kg/injection, schedule: Q01DX009 (ip), vehicle: saline with Tween-80, higher T/C = longer survival) was 108 % of control [survivor count not shown], the T/C (T/C endpoint: median survival time, dose: 6.0 mg/kg/injection, schedule: Q01DX009 (ip), vehicle: saline with Tween-80, higher T/C = longer survival) was 107 % of control [survivor count not shown] and the T/C (T/C endpoint: median survival time, dose: 24.0 mg/kg/injection, schedule: Q01DX009 (ip), vehicle: saline with Tween-80, higher T/C = longer survival) was 137 % of control [survivor count not shown].
